Among the data in article doi:10.1101/2024.09.19.613943 are binding values, retold here.

The chains behind the UniProt entries cited, without tags or fusion partners.
UniProt Q04744: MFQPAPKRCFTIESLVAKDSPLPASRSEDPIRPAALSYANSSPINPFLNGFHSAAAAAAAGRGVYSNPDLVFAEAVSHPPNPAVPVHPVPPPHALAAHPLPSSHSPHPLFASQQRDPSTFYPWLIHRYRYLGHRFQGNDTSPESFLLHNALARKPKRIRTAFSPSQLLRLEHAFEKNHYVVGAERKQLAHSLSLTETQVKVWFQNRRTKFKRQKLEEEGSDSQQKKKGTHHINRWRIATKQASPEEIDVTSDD

This test deals with Emx2-3xFlag-V5 (transiently overexpressed in P19 cells) (UniProt Q04744). The test is described as follows: affinity purification with mass spectrometry.

These are yes or no findings as the source states them, for the method shown. In cells and extracts the contact can be indirect. Here binding means that the protein was enriched with, or labelled near, the bait; the list need not be complete.

B1: Ldb1, endogenous in P19 cells (protein, UniProt P70662 1-411)
chain: MSVGCACPGCSSKSFKLYSPKEPPNGNAFPPFHPGTMLDRDVGPTPMYPPTYLEPGIGRHTPYGNQTDYRIFELNKRLQNWTEECDNLWWDAFTTEFFEDDAMLTITFCLEDGPKRYTIGRTLIPRYFRSIFEGGATELYYVLKHPKEAFHSNFVSLDCDQGSMVTQHGKPMFTQVCVEGRLYLEFMFDDMMRIKTWHFSIRQHRELIPRSILAMHAQDPQMLDQLSKNITRCGLSNSTLNYLRLCVILEPMQELMSRHKTYSLSPRDCLKTCLFQKWQRMVAPPAEPARQQPSKRRKRKMSGGSTMSSGGGNTNNSNSKKKSPASTFALSSQVPDVMVVGEPTLMGGEFGDEDERLITRLENTQFDAANGIDDEDSFNNSPALGANSPWNSKPPSSQESKSENPTSQASQ
For B1, the binding result is recorded as “binds”.
